Assay [1] has as its target T1, endogenous And-1 (human (endogenous in HEK293T)) (UniProt O75717).
T1 sequence: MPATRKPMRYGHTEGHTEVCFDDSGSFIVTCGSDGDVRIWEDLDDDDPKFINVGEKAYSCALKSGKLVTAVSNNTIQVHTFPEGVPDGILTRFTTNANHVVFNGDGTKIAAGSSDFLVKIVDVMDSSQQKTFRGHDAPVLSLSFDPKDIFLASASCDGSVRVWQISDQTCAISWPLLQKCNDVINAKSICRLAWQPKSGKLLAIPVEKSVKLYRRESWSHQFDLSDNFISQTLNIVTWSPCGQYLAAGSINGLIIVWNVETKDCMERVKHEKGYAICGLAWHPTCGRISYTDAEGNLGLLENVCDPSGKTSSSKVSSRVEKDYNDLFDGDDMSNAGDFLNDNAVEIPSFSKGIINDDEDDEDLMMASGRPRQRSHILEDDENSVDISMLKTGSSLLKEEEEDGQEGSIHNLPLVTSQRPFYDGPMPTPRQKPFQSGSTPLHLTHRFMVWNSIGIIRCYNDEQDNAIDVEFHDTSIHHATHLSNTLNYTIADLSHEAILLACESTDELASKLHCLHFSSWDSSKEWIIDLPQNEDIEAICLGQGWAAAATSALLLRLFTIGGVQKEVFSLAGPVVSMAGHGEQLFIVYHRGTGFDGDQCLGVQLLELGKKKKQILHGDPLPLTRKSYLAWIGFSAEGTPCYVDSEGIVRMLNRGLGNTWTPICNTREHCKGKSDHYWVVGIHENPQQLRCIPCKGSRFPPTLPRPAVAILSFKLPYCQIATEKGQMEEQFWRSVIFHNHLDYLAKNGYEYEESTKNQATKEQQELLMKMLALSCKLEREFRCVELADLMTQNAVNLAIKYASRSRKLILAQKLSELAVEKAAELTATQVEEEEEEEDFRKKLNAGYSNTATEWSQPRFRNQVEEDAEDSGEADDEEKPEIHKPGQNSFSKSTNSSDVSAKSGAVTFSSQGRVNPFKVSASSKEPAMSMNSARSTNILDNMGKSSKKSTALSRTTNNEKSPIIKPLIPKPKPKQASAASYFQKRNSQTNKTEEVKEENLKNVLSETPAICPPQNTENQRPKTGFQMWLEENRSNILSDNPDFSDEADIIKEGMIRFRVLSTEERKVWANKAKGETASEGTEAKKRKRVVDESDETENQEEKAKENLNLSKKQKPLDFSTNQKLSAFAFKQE
In words: co-IP; endogenous And-1 in HEK293T cells, with or without UVB; protein A/G beads coupled with antibody, 4 °C overnight; 20 mM Tris-HCl pH 8.0, 100 mM NaCl, 1 mM EDTA, 0.5% NP-40, 10 mM NaF.

Amino acid sequences for entries named in this document (tags omitted).
UniProt Q16531: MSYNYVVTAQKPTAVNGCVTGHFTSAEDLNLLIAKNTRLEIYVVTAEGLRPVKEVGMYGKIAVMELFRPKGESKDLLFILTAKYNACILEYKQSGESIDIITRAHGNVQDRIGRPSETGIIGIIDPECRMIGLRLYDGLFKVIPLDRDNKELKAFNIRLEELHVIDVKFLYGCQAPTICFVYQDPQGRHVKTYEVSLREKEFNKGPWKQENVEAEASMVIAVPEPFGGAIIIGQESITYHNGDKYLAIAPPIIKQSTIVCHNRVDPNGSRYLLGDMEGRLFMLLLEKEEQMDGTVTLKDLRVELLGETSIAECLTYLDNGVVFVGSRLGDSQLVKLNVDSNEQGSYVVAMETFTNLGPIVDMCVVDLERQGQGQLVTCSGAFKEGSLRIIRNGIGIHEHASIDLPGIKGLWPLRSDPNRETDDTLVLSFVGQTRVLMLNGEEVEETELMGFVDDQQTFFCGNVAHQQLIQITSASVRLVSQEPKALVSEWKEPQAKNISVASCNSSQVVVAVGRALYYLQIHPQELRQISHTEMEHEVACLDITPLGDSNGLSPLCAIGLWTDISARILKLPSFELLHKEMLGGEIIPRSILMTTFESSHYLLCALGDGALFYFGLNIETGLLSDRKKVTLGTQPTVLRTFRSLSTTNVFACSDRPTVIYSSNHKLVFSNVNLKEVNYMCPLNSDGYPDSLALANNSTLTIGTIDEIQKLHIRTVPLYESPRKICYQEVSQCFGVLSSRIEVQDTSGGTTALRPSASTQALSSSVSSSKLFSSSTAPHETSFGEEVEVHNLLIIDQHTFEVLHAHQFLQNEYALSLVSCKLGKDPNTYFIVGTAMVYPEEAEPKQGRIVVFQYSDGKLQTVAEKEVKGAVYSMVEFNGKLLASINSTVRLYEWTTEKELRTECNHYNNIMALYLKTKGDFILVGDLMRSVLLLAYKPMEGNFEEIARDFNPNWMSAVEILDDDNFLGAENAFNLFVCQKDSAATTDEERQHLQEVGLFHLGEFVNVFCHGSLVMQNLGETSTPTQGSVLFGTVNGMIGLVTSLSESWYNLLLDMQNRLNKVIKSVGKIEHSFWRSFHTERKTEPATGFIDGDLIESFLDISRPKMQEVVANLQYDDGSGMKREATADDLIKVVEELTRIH

The target in assay [2] is T2, FLAG-And-1, full-length And-1 (FL, 1–1129) (human) (UniProt O75717).
T2 sequence: T1 sequence
In words: co-IP; FLAG-IP on Anti-FLAG-M2 affinity beads overnight from HEK293T cells expressing FLAG-And-1 or truncated mutants, with or without UVB; 20 mM Tris-HCl pH 8.0, 100 mM NaCl, 1 mM EDTA, 0.5% NP-40, 10 mM NaF.

Assay [3] has as its target T3, And-1 (form used in the co-IP with p66 not shown) (human) (UniProt O75717).
T3 sequence: T1 sequence
In words: co-IP; And-1 and p66; set-up shown only in Supplementary Fig. 2F.

Assay [4] deals with T4, GST-HMG (And-1 HMG domain) (human) (UniProt O75717).
T4 sequence: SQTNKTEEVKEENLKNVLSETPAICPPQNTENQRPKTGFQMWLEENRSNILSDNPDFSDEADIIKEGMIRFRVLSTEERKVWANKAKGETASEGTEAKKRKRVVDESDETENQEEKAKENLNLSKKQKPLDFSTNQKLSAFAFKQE
In words: co-IP; GST-IP from HEK293T cells co-transfected with FLAG-SepB and GST-HMG for 40 h; without UVB, or UVB with pretreatment with the ATR inhibitor VE-821 for 6 h.

For assay [5], the target named is T4, GST-HMG (And-1 HMG domain) (human). In words: co-IP; GST-IP from HEK293T cells co-transfected with SepB (WT or T826A) and GST-HMG for 40 h, harvested 1 h after UVB 100 mJ/cm2, no ATR inhibitor.

Where a chain is given by its changes, count along the chain named. Numbers in names are those of the source. No constants are given. Whether binding was seen depends on the method and setting. In cells and extracts the contact can be indirect. Some results given as binding are weak or reduced against the parent protein; the word gives no strength. For some assays here: Tags and fused reporters may be left off the sequences shown.

The source of these data is publication PMC12540712.

Turning to DDB1 (from UniProt Q16531 1-1140), the binding entry in assay [1] and in assay [2] was “binds” in each case.

B1: p66 (POLD3/p66) (protein, UniProt Q15054 1-466)
chain: MADQLYLENIDEFVTDQNKIVTYKWLSYTLGVHVNQAKQMLYDYVERKRKENSGAQLHVTYLVSGSLIQNGHSCHKVAVVREDKLEAVKSKLAVTASIHVYSIQKAMLKDSGPLFNTDYDILKSNLQNCSKFSAIQCAAAVPRAPAESSSSSKKFEQSHLHMSSETQANNELTTNGHGPPASKQVSQQPKGIMGMFASKAAAKTQETNKETKTEAKEVTNASAAGNKAPGKGNMMSNFFGKAAMNKFKVNLDSEQAVKEEKIVEQPTVSVTEPKLATPAGLKKSSKKAEPVKVLQKEKKRGKRVALSDDETKETENMRKKRRRIKLPESDSSEDEVFPDSPGAYEAESPSPPPPPSPPLEPVPKTEPEPPSVKSSSGENKRKRKRVLKSKTYLDGEGCIVTEKVYESESCTDSEEELNMKTSSVHRPPAMTVKKEPREERKGPKKGTAALGKANRQVSITGFFQRK
As to B1, in assay [3], the binding result was “binds”.

B2: FLAG-And-1 SepB domain (330–984) (domain or fragment, UniProt O75717 330-984)
chain: DDMSNAGDFLNDNAVEIPSFSKGIINDDEDDEDLMMASGRPRQRSHILEDDENSVDISMLKTGSSLLKEEEEDGQEGSIHNLPLVTSQRPFYDGPMPTPRQKPFQSGSTPLHLTHRFMVWNSIGIIRCYNDEQDNAIDVEFHDTSIHHATHLSNTLNYTIADLSHEAILLACESTDELASKLHCLHFSSWDSSKEWIIDLPQNEDIEAICLGQGWAAAATSALLLRLFTIGGVQKEVFSLAGPVVSMAGHGEQLFIVYHRGTGFDGDQCLGVQLLELGKKKKQILHGDPLPLTRKSYLAWIGFSAEGTPCYVDSEGIVRMLNRGLGNTWTPICNTREHCKGKSDHYWVVGIHENPQQLRCIPCKGSRFPPTLPRPAVAILSFKLPYCQIATEKGQMEEQFWRSVIFHNHLDYLAKNGYEYEESTKNQATKEQQELLMKMLALSCKLEREFRCVELADLMTQNAVNLAIKYASRSRKLILAQKLSELAVEKAAELTATQVEEEEEEEDFRKKLNAGYSNTATEWSQPRFRNQVEEDAEDSGEADDEEKPEIHKPGQNSFSKSTNSSDVSAKSGAVTFSSQGRVNPFKVSASSKEPAMSMNSARSTNILDNMGKSSKKSTALSRTTNNEKSPIIKPLIPKPKPKQASAASYFQKRNS
For B2, in assay [4], the binding entry was “binds”.

B3: SepB domain with T826A mutation (domain or fragment, UniProt O75717 330-984)
chain: B2 chain with T497A
B3: the binding result in assay [5] is listed as “binds”.
